Drawing on PMC12690290, this text covers binding for 5 molecules.

Protein sequences, listed by entry. Tags and fused reporters are not part of them. Residues count along the entry.
UniProt P02787, residues 20-698: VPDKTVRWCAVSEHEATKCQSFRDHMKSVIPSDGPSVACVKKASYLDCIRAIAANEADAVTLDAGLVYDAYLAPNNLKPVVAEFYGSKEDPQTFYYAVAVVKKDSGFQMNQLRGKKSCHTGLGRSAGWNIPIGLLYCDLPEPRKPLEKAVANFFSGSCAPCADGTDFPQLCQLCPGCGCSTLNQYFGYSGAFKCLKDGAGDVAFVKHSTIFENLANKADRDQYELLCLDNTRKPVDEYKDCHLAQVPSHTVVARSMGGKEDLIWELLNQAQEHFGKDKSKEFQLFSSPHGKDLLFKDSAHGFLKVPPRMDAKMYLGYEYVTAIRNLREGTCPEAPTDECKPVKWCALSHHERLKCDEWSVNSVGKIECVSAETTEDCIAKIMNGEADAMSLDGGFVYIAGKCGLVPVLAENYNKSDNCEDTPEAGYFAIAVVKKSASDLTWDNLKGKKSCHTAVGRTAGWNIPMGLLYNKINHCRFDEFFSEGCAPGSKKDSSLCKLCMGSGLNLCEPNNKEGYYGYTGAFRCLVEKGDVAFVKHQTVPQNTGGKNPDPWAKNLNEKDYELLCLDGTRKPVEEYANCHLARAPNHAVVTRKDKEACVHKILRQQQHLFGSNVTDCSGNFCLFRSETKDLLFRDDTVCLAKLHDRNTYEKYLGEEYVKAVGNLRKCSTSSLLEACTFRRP
UniProt P03952, residues 20-638: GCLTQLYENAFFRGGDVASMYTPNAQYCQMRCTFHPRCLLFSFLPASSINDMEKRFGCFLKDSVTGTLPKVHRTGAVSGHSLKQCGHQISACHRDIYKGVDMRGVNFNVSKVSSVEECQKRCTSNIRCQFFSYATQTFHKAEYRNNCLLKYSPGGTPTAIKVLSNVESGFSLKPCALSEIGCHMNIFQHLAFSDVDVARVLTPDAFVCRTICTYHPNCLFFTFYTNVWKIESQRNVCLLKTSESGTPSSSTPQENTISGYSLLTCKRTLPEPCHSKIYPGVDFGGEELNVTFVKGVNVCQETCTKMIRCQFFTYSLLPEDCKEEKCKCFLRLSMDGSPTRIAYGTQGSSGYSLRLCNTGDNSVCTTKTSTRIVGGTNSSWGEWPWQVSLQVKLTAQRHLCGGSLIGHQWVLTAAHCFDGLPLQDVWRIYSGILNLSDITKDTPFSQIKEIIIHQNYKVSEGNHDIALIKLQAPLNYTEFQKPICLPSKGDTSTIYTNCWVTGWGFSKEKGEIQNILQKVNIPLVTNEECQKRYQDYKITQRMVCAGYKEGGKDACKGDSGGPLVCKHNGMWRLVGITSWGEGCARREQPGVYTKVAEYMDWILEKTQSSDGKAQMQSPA
UniProt P05156, residues 19-583: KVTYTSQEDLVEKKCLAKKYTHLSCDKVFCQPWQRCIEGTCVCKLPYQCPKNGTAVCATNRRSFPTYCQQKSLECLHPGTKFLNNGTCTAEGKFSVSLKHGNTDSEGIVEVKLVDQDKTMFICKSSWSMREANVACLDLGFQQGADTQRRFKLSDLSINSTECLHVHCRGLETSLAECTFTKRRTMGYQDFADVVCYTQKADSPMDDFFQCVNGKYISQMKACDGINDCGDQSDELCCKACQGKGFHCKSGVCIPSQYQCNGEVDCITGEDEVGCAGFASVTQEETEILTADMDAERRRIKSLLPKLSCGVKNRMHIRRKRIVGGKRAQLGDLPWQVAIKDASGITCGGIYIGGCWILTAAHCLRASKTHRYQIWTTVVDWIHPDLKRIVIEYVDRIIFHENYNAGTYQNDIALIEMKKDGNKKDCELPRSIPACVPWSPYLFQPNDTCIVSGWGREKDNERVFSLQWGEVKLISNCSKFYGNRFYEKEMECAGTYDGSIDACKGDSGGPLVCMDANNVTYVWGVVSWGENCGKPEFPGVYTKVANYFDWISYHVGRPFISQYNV
UniProt Q07954, residues 20-4544: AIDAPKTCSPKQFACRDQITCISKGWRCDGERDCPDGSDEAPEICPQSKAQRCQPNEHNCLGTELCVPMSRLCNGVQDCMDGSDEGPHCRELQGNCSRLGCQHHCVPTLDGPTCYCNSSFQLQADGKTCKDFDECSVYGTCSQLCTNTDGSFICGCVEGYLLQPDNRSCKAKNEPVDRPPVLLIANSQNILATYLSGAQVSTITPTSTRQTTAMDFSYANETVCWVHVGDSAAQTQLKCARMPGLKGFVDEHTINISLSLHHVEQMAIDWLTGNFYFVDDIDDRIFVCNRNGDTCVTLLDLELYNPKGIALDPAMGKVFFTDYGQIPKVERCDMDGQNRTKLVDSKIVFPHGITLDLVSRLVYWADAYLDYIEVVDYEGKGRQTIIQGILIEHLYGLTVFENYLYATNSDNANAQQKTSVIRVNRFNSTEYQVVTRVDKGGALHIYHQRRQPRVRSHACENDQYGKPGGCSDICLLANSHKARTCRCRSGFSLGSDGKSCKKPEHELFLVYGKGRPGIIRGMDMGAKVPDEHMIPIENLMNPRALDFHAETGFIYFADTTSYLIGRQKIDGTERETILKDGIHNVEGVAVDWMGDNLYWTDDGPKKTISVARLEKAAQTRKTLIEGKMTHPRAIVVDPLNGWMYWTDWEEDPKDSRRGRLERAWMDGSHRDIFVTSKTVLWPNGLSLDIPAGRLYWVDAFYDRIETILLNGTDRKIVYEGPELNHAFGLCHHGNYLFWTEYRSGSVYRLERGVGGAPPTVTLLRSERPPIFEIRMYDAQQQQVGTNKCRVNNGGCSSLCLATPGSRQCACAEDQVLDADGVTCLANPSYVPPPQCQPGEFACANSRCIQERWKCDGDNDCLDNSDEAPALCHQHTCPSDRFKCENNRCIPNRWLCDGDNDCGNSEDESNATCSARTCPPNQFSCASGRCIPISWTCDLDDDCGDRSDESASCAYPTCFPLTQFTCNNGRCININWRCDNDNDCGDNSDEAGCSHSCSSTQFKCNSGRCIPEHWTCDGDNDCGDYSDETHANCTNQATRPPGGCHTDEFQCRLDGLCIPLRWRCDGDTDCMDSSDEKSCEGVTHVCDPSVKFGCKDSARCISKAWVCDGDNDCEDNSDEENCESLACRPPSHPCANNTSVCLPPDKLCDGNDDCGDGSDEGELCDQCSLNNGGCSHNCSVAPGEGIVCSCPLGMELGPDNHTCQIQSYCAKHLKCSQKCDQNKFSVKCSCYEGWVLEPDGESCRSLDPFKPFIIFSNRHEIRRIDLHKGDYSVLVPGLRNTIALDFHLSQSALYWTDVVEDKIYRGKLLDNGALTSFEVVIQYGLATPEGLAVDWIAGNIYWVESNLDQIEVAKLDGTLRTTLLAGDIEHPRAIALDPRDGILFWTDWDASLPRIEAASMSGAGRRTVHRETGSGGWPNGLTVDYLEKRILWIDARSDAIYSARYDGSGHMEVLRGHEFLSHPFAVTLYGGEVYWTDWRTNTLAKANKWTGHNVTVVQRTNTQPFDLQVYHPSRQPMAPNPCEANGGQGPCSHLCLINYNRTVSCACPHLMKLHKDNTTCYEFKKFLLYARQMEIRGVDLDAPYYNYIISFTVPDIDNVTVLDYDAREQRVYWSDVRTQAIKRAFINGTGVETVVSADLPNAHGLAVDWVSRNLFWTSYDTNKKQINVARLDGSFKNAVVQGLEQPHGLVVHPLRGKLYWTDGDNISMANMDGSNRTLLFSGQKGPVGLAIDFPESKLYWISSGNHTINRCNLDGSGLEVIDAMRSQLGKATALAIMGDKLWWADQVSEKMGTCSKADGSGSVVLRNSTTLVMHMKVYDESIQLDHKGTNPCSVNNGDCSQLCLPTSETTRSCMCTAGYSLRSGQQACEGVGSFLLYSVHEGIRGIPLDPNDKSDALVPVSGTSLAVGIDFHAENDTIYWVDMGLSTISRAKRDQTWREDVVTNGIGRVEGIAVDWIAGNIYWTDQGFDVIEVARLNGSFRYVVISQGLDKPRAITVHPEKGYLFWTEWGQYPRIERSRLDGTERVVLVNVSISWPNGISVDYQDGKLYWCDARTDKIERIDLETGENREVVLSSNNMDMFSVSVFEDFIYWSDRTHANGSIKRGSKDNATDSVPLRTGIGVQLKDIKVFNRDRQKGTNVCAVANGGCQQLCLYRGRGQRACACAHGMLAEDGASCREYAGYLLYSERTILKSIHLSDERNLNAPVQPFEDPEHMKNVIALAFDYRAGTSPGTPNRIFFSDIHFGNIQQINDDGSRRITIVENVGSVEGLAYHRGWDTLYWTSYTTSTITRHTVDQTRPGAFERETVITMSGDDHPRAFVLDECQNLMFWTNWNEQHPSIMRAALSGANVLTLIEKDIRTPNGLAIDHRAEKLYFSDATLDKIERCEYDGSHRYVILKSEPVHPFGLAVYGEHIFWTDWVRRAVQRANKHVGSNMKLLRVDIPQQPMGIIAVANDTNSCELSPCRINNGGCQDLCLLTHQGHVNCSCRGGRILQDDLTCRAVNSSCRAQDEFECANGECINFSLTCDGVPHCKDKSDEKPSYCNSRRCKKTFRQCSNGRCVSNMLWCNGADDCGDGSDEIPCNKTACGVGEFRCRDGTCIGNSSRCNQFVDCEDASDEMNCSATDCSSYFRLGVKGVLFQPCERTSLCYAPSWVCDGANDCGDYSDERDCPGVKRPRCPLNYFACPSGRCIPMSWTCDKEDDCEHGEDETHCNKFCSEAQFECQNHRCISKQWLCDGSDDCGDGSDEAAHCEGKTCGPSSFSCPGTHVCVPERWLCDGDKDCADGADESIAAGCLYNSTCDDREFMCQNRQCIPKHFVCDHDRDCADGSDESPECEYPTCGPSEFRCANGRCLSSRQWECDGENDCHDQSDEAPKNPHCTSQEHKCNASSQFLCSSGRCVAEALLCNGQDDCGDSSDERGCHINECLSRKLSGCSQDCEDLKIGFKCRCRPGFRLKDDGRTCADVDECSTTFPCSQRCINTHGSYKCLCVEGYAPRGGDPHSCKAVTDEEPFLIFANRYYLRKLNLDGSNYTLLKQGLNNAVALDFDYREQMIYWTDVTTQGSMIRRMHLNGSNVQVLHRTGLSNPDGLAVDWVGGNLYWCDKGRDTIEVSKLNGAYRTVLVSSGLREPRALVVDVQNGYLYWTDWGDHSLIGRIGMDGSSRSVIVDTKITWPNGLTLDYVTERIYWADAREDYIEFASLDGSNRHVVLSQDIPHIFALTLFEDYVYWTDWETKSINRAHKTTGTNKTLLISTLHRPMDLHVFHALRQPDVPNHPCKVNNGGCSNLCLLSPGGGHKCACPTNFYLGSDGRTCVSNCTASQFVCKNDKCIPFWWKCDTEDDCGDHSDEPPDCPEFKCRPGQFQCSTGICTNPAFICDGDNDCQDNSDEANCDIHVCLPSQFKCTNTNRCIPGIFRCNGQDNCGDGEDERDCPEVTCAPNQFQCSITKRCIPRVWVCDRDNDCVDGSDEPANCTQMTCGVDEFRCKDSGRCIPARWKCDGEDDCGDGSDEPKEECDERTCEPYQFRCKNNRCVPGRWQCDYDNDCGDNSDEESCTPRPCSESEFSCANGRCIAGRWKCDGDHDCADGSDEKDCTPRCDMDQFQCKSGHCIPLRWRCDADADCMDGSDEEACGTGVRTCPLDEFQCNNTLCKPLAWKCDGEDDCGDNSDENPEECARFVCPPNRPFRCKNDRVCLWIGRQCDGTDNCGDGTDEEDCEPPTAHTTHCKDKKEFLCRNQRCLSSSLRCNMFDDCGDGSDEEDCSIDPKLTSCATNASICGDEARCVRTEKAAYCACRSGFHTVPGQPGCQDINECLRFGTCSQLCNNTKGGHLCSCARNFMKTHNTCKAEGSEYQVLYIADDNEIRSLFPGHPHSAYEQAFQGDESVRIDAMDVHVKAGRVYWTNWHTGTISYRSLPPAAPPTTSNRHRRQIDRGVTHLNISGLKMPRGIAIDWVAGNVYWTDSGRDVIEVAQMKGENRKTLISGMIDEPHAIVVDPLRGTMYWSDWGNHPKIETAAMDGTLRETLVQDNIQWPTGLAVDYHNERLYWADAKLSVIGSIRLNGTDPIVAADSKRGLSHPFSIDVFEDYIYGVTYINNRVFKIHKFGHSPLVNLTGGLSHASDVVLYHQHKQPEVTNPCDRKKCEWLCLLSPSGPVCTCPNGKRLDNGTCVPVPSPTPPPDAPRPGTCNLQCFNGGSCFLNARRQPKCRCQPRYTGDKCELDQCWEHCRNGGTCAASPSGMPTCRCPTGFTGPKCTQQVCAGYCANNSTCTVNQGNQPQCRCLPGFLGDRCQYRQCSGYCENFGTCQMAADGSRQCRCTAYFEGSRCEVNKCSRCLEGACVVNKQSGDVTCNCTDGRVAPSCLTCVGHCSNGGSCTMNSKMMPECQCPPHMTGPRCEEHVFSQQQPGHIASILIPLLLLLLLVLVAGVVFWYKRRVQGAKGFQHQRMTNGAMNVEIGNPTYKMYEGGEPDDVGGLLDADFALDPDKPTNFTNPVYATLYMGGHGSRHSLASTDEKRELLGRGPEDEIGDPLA

Assay [1] addresses holo-human transferrin (human) (UniProt P02787). The experiment in a line: affinity purification with mass spectrometry; proto-heme–human HPX, mesoheme–rabbit HPX or holo-human Tf Affi-Gel 15; detergent extracts of primary human hepatocytes; proteins found on underivatized, mouse IgG or ovalbumin resins filtered out; only the target purified.
In assay [2] the target is T1, mesoheme–rabbit hemopexin (1:1 heme–HPX complex) (rabbit) (UniProt P20058).
T1 sequence: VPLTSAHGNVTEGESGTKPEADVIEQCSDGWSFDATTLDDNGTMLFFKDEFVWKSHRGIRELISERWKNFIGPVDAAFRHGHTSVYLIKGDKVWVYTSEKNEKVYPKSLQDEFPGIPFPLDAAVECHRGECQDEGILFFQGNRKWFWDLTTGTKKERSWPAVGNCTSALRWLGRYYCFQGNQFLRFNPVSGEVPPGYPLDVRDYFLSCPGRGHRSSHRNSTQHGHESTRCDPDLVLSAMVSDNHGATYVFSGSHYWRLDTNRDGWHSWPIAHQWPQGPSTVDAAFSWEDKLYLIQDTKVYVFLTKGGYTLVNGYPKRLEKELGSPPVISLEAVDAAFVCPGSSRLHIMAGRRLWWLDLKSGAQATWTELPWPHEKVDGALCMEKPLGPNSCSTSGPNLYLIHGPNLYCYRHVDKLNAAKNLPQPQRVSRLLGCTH
The assay is described as above.

The target of assay [3] is T2, heme–human hemopexin (1:1 heme–HPX complex) (human) (UniProt P02790).
T2 sequence: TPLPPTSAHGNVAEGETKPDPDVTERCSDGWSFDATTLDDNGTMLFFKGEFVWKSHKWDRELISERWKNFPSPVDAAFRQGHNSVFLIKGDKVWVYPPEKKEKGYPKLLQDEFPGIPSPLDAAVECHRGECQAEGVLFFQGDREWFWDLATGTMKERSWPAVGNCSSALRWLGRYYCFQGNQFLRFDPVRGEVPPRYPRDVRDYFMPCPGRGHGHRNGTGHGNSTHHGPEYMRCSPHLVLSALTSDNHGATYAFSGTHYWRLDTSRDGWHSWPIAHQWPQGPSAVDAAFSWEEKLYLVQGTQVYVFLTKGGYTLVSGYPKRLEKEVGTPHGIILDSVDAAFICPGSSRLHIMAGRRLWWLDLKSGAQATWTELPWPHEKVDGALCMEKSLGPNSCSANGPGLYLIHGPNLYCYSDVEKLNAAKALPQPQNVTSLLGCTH
The description is as above.

Assay [4] deals with T1, mesoheme–rabbit hemopexin (1:1 heme–HPX complex) (rabbit). Description: affinity purification with mass spectrometry; heme–HPX or holo-human Tf Affi-Gel 15 against ovalbumin Affi-Gel 15; HepG2 whole-cell extracts (0.5% Triton X-100, HEPES pH 7.4, 150 mM NaCl); 2-fold or greater over the negative control counted as specifically bound; only the target purified.
For assay [5], the target named is T2, heme–human hemopexin (1:1 heme–HPX complex) (human). The experiment in a line: affinity purification with mass spectrometry; as a6, isolation from human hepatocyte extract in the presence of RAP (500 nM); the pairs that are blocked; only the target purified.
For assay [6], the target named is holo-human transferrin (human) (UniProt P02787). The experiment in a line: affinity purification with mass spectrometry; heme–HPX or holo-human Tf Affi-Gel 15 against ovalbumin Affi-Gel 15; HepG2 whole-cell extracts (0.5% Triton X-100, HEPES pH 7.4, 150 mM NaCl); 2-fold or greater over the negative control counted as specifically bound; only the target purified.

No constants are given. Whether binding was seen depends on the method and setting. Binding seen in cells or lysates may run through a third protein. These calls come from enrichment with a bait or labelling near it, and not all partners need be listed. For part of these data: No binding means not detected with the bait.

As to “Prekallikrein B1 (from UniProt P03952 20-638) (enzyme)”, the binding entry in assay [1], in assay [2] and in assay [3] was “binds” each time.
With “Complement factor I (from UniProt P05156 19-583) (enzyme)”, the binding result in assay [1], in assay [2] and in assay [3] was “binds” throughout.
“Low-density lipoprotein receptor 1 (low-density lipoprotein-related protein 1) (from UniProt Q07954 20-4544)”: the binding result in assay [4] is given as “binds”; in assay [1] it was “no binding”; in assay [2] it was “binds”; in assay [3], “binds”; in assay [5], “binds”.

B1: Complement component 2 (protein, UniProt P06681 21-752)
chain: APSCPQNVNISGGTFTLSHGWAPGSLLTYSCPQGLYPSPASRLCKSSGQWQTPGATRSLSKAVCKPVRCPAPVSFENGIYTPRLGSYPVGGNVSFECEDGFILRGSPVRQCRPNGMWDGETAVCDNGAGHCPNPGISLGAVRTGFRFGHGDKVRYRCSSNLVLTGSSERECQGNGVWSGTEPICRQPYSYDFPEDVAPALGTSFSHMLGATNPTQKTKESLGRKIQIQRSGHLNLYLLLDCSQSVSENDFLIFKESASLMVDRIFSFEINVSVAIITFASEPKVLMSVLNDNSRDMTEVISSLENANYKDHENGTGTNTYAALNSVYLMMNNQMRLLGMETMAWQEIRHAIILLTDGKSNMGGSPKTAVDHIREILNINQKRNDYLDIYAIGVGKLDVDWRELNELGSKKDGERHAFILQDTKALHQVFEHMLDVSKLTDTICGVGNMSANASDQERTPWHVTIKPKSQETCRGALISDQWVLTAAHCFRDGNDHSLWRVNVGDPKSQWGKEFLIEKAVISPGFDVFAKKNQGILEFYGDDIALLKLAQKVKMSTHARPICLPCTMEANLALRRPQGSTCRDHENELLNKQSVPAHFVALNGSKLNINLKMGVEWTSCAEVVSQEKTMFPNLTDVREVVTDQFLCSGTQEDESPCKGESGGAVFLERRFRFFQVGLVSWGLYNPCLGSADKNSRKRAPRSKVPPPRDFHINLFRMQPWLRQHLGDVLNFLPL
Consider B1, for which the binding entry in assay [6], in assay [1] and in assay [2] was “binds” in each case.

B2: Angiopoietin-like protein 3 (protein, UniProt Q9Y5C1 17-460)
chain: SRIDQDNSSFDSLSPEPKSRFAMLDDVKILANGLLQLGHGLKDFVHKTKGQINDIFQKLNIFDQSFYDLSLQTSEIKEEEKELRRTTYKLQVKNEEVKNMSLELNSKLESLLEEKILLQQKVKYLEEQLTNLIQNQPETPEHPEVTSLKTFVEKQDNSIKDLLQTVEDQYKQLNQQHSQIKEIENQLRRTSIQEPTEISLSSKPRAPRTTPFLQLNEIRNVKHDGIPAECTTIYNRGEHTSGMYAIRPSNSQVFHVYCDVISGSPWTLIQHRIDGSQNFNETWENYKYGFGRLDGEFWLGLEKIYSIVKQSNYVLRIELEDWKDNKHYIEYSFYLGNHETNYTLHLVAITGNVPNAIPENKDLVFSTWDHKAKGHFNCPEGYSGGWWWHDECGENNLNGKYNKPRAKSKPERRRGLSWKSQNGRLYSIKSTKMLIHPTDSESFE
As for B2, the binding entry in assay [3] is on record as “binds”.
